# Results reported in the supplement of paper PMC10849652.
# The chains behind the UniProt entries cited, without tags or fusion partners. Where a name states a change or a piece, a line headed by the entry shows the natural chain unless it says otherwise.
# UniProt Q96BR5: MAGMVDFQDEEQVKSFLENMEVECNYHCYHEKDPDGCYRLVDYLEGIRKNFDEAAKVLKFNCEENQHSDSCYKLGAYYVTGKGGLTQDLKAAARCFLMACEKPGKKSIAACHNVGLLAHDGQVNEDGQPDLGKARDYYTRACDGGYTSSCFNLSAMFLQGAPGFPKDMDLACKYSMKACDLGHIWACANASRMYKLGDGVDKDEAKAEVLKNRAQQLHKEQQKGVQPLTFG
# UniProt Q86YQ8: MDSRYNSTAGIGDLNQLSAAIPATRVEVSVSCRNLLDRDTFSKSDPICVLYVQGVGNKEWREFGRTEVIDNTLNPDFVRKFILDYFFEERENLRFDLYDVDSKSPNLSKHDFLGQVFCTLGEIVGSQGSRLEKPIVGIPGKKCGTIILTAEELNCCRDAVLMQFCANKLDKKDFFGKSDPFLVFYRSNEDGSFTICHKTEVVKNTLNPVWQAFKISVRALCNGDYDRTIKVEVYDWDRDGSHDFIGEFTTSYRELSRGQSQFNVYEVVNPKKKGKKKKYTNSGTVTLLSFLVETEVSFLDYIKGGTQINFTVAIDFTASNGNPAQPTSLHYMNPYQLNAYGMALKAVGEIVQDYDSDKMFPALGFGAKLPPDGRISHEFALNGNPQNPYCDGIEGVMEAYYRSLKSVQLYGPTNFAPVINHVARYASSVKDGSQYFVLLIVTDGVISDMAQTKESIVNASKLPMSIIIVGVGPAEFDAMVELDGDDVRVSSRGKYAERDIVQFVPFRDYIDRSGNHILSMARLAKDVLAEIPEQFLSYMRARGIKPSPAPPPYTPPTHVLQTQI
# UniProt Q9NZJ6: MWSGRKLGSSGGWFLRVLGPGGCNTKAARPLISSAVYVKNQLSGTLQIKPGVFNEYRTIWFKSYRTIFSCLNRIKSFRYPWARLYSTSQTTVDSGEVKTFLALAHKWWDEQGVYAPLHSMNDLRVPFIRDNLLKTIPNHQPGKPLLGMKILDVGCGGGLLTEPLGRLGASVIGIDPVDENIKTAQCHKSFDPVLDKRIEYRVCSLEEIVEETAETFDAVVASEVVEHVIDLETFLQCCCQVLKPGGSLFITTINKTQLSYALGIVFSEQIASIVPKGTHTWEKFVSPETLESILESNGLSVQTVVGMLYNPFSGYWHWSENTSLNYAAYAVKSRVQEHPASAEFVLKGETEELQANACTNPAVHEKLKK
# UniProt P14406, whole entry, looked up: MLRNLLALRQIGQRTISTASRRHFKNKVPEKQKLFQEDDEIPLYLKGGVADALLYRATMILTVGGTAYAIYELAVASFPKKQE
# UniProt Q7Z4G1, whole entry, looked up: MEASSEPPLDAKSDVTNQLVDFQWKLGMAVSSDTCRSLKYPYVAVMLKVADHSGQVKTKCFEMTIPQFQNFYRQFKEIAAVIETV
# UniProt P09669, whole entry, looked up: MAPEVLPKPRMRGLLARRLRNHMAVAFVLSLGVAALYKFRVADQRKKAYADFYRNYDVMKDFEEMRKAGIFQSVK
# UniProt Q8N668, whole entry, looked up: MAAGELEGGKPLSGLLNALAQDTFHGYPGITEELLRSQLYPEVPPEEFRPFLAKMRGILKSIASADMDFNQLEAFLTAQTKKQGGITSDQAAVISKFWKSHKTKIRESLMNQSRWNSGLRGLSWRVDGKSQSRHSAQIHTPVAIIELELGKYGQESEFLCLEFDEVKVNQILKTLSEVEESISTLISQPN
# UniProt P12111: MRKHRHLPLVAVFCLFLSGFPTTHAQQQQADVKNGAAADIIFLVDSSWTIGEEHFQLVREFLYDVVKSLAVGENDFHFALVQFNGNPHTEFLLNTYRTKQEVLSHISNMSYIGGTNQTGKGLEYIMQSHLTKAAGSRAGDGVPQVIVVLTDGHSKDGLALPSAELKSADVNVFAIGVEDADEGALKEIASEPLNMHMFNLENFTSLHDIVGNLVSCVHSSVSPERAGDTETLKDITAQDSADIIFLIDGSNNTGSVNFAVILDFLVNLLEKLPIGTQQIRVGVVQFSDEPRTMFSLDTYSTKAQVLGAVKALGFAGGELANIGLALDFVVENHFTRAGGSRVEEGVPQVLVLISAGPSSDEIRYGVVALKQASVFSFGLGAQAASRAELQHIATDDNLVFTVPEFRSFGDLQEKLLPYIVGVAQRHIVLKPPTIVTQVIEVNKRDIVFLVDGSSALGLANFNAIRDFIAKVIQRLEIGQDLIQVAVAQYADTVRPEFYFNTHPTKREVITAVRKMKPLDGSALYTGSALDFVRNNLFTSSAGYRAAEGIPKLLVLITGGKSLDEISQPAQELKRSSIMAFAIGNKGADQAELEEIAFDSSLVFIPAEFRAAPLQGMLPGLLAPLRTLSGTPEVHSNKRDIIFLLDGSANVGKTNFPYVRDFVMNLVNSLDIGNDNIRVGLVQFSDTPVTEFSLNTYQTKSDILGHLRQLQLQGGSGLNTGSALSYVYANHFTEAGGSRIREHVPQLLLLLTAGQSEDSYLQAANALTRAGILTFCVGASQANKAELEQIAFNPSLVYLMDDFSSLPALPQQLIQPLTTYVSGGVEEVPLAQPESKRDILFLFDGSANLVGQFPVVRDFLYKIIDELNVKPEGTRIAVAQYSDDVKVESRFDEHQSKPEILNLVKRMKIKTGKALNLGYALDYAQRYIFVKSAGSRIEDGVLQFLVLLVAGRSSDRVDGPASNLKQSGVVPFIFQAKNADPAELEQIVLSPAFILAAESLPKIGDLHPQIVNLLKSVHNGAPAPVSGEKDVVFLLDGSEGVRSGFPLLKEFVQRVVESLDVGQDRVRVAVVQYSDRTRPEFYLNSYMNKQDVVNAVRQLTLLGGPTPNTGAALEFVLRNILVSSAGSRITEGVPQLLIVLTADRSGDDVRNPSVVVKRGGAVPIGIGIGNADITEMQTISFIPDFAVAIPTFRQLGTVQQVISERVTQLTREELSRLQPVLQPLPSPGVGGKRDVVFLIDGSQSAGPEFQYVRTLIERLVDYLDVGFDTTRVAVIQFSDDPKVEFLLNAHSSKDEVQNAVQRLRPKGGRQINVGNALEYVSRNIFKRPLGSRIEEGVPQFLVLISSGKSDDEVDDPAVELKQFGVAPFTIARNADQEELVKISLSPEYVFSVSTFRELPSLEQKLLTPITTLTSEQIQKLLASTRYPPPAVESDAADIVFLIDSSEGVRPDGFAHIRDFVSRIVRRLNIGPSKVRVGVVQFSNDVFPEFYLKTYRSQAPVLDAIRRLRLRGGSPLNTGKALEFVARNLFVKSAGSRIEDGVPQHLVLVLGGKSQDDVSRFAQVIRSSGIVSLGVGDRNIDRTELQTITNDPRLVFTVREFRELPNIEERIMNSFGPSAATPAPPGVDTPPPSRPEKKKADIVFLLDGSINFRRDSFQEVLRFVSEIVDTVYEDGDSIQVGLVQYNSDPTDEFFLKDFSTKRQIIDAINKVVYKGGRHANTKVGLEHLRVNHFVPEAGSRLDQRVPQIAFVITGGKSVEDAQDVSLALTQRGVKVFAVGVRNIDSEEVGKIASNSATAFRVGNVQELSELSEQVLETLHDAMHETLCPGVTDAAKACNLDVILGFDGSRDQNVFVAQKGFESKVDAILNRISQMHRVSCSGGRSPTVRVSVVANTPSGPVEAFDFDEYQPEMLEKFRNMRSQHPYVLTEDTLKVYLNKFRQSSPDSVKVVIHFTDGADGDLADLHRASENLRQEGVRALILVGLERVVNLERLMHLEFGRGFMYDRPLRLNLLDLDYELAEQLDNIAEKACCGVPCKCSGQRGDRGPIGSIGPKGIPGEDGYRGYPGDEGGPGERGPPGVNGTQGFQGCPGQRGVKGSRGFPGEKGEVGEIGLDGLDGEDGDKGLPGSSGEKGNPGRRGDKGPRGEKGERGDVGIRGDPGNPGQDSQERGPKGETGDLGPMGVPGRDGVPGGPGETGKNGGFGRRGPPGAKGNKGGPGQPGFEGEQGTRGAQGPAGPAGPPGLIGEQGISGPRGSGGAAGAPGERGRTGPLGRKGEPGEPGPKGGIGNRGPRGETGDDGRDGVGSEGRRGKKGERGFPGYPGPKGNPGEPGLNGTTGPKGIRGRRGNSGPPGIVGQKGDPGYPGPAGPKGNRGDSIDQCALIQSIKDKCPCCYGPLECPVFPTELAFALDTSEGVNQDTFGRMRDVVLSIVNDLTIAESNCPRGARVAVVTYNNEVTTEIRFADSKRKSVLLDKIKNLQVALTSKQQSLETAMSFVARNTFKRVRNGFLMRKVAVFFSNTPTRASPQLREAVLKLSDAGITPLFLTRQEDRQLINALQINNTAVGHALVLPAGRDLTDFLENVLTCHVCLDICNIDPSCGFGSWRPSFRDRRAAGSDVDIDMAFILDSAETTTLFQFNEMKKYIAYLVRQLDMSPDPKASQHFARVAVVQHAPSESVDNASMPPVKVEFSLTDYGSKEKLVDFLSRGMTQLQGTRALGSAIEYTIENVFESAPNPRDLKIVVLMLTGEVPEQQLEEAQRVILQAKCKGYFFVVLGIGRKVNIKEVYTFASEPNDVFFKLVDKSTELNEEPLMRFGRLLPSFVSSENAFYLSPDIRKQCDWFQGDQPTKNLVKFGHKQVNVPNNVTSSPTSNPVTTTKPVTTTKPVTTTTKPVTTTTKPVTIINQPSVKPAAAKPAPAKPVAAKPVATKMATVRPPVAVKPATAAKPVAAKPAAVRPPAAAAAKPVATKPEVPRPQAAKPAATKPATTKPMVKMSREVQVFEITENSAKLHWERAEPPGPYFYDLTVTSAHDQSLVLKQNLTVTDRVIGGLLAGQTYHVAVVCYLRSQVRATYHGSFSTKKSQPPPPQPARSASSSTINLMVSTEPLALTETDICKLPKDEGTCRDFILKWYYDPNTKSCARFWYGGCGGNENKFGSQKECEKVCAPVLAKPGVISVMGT
# UniProt Q9UP83: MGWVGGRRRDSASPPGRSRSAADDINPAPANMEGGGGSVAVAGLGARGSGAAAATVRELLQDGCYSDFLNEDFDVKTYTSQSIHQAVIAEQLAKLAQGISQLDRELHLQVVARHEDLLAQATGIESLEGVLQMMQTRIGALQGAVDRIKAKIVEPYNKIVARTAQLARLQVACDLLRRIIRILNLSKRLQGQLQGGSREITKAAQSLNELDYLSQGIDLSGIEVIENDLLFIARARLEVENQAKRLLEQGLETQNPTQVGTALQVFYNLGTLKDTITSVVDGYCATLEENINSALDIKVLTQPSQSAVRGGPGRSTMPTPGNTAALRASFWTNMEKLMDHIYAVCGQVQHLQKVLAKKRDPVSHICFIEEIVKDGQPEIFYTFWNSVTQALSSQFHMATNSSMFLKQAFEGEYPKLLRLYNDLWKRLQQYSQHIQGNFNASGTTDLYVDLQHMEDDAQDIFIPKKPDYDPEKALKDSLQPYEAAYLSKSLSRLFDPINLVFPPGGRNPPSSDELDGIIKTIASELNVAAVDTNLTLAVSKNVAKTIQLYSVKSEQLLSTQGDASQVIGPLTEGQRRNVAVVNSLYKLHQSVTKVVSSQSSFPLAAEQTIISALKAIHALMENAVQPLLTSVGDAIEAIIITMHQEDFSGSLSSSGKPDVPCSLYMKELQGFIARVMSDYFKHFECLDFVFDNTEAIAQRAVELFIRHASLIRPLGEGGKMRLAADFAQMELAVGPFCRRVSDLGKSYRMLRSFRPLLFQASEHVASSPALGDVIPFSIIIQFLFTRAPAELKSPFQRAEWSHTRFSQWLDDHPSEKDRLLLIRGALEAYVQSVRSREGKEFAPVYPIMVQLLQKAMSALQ
# UniProt Q9UI42: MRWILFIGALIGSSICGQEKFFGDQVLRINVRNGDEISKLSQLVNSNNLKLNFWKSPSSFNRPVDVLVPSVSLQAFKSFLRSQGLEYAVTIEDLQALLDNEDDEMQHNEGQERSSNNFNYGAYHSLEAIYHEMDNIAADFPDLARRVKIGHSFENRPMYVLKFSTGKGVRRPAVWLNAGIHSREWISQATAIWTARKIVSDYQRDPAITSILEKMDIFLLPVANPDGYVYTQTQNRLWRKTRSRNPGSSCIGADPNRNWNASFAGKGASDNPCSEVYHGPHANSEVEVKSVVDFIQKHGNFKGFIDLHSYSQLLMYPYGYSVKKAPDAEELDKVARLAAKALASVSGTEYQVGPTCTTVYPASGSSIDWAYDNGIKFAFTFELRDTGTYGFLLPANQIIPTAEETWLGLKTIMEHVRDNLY
# UniProt Q99829: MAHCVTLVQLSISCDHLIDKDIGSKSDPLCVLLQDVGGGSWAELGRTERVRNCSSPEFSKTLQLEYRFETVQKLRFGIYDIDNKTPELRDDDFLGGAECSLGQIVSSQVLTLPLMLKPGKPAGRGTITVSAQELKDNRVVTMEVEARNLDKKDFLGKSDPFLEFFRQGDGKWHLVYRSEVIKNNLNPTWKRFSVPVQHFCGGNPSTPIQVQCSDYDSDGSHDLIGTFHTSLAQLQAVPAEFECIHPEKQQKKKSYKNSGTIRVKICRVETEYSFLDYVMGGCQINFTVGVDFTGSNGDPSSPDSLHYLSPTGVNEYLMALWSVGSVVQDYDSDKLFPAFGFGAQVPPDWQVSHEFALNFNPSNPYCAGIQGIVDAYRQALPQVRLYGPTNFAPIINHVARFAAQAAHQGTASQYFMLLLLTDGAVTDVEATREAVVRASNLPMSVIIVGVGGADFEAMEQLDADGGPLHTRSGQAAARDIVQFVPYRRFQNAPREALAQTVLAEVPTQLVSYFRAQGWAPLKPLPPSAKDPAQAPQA
# The other results are listed elsewhere or left out.
# Compound: C1=CC=C(C=C1)[C@H](COC2=CC3=C(C=C2)NC(=O)N3)NC(=O)C4=CC=CN(C4=O)CC5=CC(=C(C=C5)F)F
# Test: log2 fold change, soluble protein after heating vs DMSO (PISA); higher = thermal stabilisation; K562 lysate, 10 uM; active = over 0.2 and 3.5 SD of the protein, either way, in both replicates (recomputed)
# Summary of the method: (§1)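 K562 pellets were dounce-homogenised in PBS pH 7.4 containing 1 mM MgCl2, and the crude extract, at 1 mg/mL protein, was exposed to 10 μM compound for 30 min. Aliquots were heated for 3 min across 48°C-58°C, pooled, brought to 0.5% NP-40 at 4°C and spun at 21,000xg for 90 min, with the supernatant taken as soluble protein. TMTpro 16plex LC-MS/MS with equalised channel sums quantified that protein. Values are log-two fold changes in thermal stability relative to solvent controls, taken from duplicates.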
row,Target,log2 fold change
1,COA7 (UniProt Q96BR5),inactive: 0.009
2,CPNE8 (UniProt Q86YQ8),inactive: -0.128
3,CNTN4 (UniProt Q8IWV2),inactive: 0.046
4,COQ3 (UniProt Q9NZJ6),inactive: 0.034
5,COMMD3-BMI1 (UniProt R4GMX3),inactive: 0.11
6,CORO1B (UniProt Q9BR76),inactive: 0.003
7,COQ9 (UniProt O75208),inactive: -0.102
8,COX7A2 (UniProt P14406),inactive: -0.072
9,COMMD6 isoform 2 (UniProt Q7Z4G1),inactive: 0.017
10,CORO6 isoform 5 (UniProt Q6QEF8),inactive: -0.007
11,CPNE2 (UniProt Q96FN4),inactive: -0.304
12,COX6C (UniProt P09669),inactive: -0.048
13,COMMD1 (UniProt Q8N668),inactive: 0.046
14,COL6A3 (UniProt P12111),inactive: -0.008
15,COG5 isoform 2 (UniProt Q9UP83),inactive: 0.034
16,CPT2 (UniProt P23786),inactive: -0.148
17,CPA4 (UniProt Q9UI42),inactive: -0.151
18,CPNE1 (UniProt Q99829),inactive: -0.005
19,CPED1 (UniProt A4D0V7),inactive: -0.051
20,CPD (UniProt O75976),inactive: 0.03

# Compound: CC1=C(SC2=C1C(=N[C@H](C3=NN=C(N32)C)CC(=O)N)C4=CC=C(C=C4)Cl)C
# Test: as above
# Summary of the method: as §1
row,Target,log2 fold change
1,COA7 (UniProt Q96BR5),inactive: -0.042
2,CPNE8 (UniProt Q86YQ8),inactive: 0.007
3,CNTN4 (UniProt Q8IWV2),inactive: 0.073
4,COQ3 (UniProt Q9NZJ6),inactive: 0.025
5,COMMD3-BMI1 (UniProt R4GMX3),inactive: -0.446
6,CORO1B (UniProt Q9BR76),inactive: 0.024
7,COQ9 (UniProt O75208),inactive: -0.069
8,COX7A2 (UniProt P14406),inactive: 0.05
9,COMMD6 isoform 2 (UniProt Q7Z4G1),inactive: 0.069
10,CORO6 isoform 5 (UniProt Q6QEF8),inactive: 0.083
11,CPNE2 (UniProt Q96FN4),inactive: -0.236
12,COX6C (UniProt P09669),inactive: 0.036
13,COMMD1 (UniProt Q8N668),inactive: -0.024
14,COL6A3 (UniProt P12111),inactive: -0.04
15,COG5 isoform 2 (UniProt Q9UP83),inactive: 0.045
16,CPT2 (UniProt P23786),inactive: 0.033
17,CPA4 (UniProt Q9UI42),inactive: 0.013
18,CPNE1 (UniProt Q99829),inactive: 0.048
19,CPED1 (UniProt A4D0V7),inactive: 0.078
20,CPD (UniProt O75976),inactive: 0.012
